Laboratory results from EP0636146B1 (A. MENARINI INDUSTRIE FARMACEUTICHE RIUNITE S.R.L., priority 1992, dated 1997).
[ ]: non-standard residue; d: D form. Dap = NC[C@H](N)C(=O)O

How the values were obtained:
[1] = general procedure: Boc solid-phase peptide synthesis; Boc-Leu-OCH2-PAM resin; PyBop; symmetric anhydrides (DCC); DCC/HOBt; conditions: whole synthesis, 210 nm, scale 0.5 mmoles
[2] = general procedure: Boc solid-phase peptide synthesis; PyBop; symmetric anhydrides (DCC); DCC/HOBt; conditions: cyclisation step, 210 nm

Substance	final HPLC purity [1] [%]	final HPLC purity [2] [%]
H-MDWF[Dap]L-OH	> 99	
cyclo(MDWFL)		> 99
